Patent US20150353950A1, “TRANSGENIC PLANTS” (Durham University, priority 2012, published 2015)
No constants are given. Whether binding was seen depends on the method and setting. Some binding calls cover weakened binding; strength is not graded here.

Amino acid sequences for entries named in this document (tags omitted). Residues count along the entry.
UniProt P55852, residues 1-93: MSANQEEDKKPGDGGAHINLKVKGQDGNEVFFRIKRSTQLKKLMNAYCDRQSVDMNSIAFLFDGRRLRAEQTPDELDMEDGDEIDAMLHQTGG

Legend:
[1] = biological target: T1, GID1a (purified, amine-coupled to a CM5 sensor chip) (Arabidopsis) (UniProt Q9MAA7); assay: SPR sensorgram, GID1a on the chip
T1 sequence: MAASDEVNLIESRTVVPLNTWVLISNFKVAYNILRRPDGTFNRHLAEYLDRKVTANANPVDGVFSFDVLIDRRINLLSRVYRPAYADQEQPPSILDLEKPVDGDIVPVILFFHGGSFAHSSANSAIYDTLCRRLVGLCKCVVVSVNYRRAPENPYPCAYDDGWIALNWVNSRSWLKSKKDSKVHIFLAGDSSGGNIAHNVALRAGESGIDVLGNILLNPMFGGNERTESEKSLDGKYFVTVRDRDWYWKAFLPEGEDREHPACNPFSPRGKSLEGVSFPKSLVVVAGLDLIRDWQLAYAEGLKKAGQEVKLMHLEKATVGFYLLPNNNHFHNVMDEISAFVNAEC

[2] = biological target: T1, GID1a (purified, amine-coupled to a CM5 sensor chip) (Arabidopsis); assay: SPR, GID1a amine-coupled to CM5; RGA and AtS1 injected together with GA3; competitor RGA

## SUMO1 (AtS1) (from UniProt P55852 1-93)
[1]
  binding: binds
[2]
  binding: binds
